According to PubChem BioAssay AID504467 (National Center for Advancing Translational Sciences (NCATS), 2011):
About 7,700 (2.3%) of roughly 330,000 compounds were called active. The inconclusive results got no clear call from the source; some entries with a clear call stand among them for comparison. The call rests on the fitted dose curve; in most records, active means well fitted inhibition curve with a large enough effect; inconclusive means small, poorly fitted or top-dose-only effect, or effect the other way; inactive means flat fitted curve, though single readings scatter. A potency beside an inconclusive call is a rough fit, not a confirmed value.

Assay: qHTS screen for small molecules that inhibit ELG1-dependent DNA repair in human embryonic kidney (HEK293T) cells expressing luciferase-tagged ELG1; further: nearly all actives have a fitted effect of over 55% in size
Details: HEK293T ELG1-luciferase reporter, luminescence, 16 h, DNA damage induced by 5-fluorouridine; activity change, negative = inhibition: at 46.1 µM (top of the series)
Method in brief: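 DMSO vehicle served as the neutral condition. Each well held 2,000 cells given 5-fluorouridine plus compound; after 16 hr at 37 °C/5% CO2, ONE-Glo was added and luciferase measured 30 min later.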
On the % scale 0 is the no-effect control and ±100 the full control effect; potency means the concentration at half of the fitted maximal effect.

SMILES	Potency	activity change, negative = inhibition
COc1ccc(/C=C/C(=O)c2c(C)cc(C)[nH]c2=O)c2ccccc12	inconclusive: 29.1 µM [inhibitor, single point]	
Cc1ccccc1C(=O)c1ccc2c(c1)n(C)c(=O)n2C	inconclusive: 20.6 µM [activator, partial curve]	
CCc1nc(NCCCN2CCOCC2)c2oc3ccccc3c2n1	inconclusive: 23.1 µM [inhibitor, partial curve, poor fit]	
O=C(CN1C(=O)c2cccc3cccc(c23)C1=O)N1CCN(Cc2ccc3c(c2)OCO3)CC1	inconclusive: 16.4 µM [inhibitor, single point]	
Cn1c(=O)c2c(ncn2CC(=O)Nc2cccc(S(=O)(=O)Nc3ccccc3F)c2)n(C)c1=O		inactive: 9.96%
CC(=O)NC1=C(NC2CCS(=O)(=O)C2)C(=O)c2ccccc2C1=O (stereo not given)	inconclusive: 23.1 µM [inhibitor, partial curve, poor fit]	
COc1ccc(-n2c(CNc3ccc(C)cc3)nnc2SCc2ccccc2)cc1	inconclusive: 29.1 µM [inhibitor, single point]	
COc1ccc(NC(=S)Nc2ccccc2)c(OC)c1		inactive: 7.75%
CC1CC1C(=O)OCC(=O)Nc1cccc(F)c1 (stereo not given)	inconclusive: 23.1 µM [activator, single point]	
COC(=O)c1ccc(CNS(=O)(=O)c2ccc3ccccc3c2)cc1		inactive: 3.98%
Cc1cc(C)c(S(=O)(=O)n2c([N+](=O)[O-])cnc2C)cc1C	inconclusive: 18.4 µM [activator, single point]	
CN(C)c1nc(-c2ccccc2)nc(-c2ccc(Cl)cc2)c1C#N	inconclusive: 32.6 µM [activator, partial curve, poor fit]	
COc1cccc(-c2nnn(CC(=O)N3CCCCC3)n2)c1	inconclusive: 20.6 µM [activator, partial curve]	
O=C(CNC(=O)c1ccccc1)c1ccccc1	inconclusive: 5.62 µM [activator, partial curve, poor fit]	
O=C(Nc1ccc(F)cc1F)C1CCN(c2ncnc3c2sc2cccc(F)c23)CC1		inactive: 3.1%
CCCC(C(=O)NC1CCCC1)N(C(=O)Cn1nnc(-c2ccc(C)o2)n1)C1CCCC1 (stereo not given)	inconclusive: 25.9 µM [inhibitor, single point]	
CCc1ccc(NC(=O)CSCCO)cc1	inconclusive: 20.6 µM [activator, single point]	
Cc1cccc(N2Cc3ccccc3C2=NC(=O)c2ccc(Cl)nc2)c1	inconclusive: 13 µM [activator, partial curve]	
C[C@H](CO)N1C[C@H](C)[C@@H](CN(C)Cc2ccc(Oc3ccccc3)cc2)Oc2c(NS(=O)(=O)c3cn(C)cn3)cccc2C1=O	inconclusive: 32.6 µM [activator, partial curve, poor fit]	
O=C(CSc1ccc(-c2ccccn2)nn1)N1CCc2ccccc21		inactive: 21.2%

SMILES	Potency	activity change, negative = inhibition
CN1CCN(C(=O)C2=C[C@H](c3ccc(Br)cc3)C[C@H](OCCCCO)O2)CC1	inconclusive: 25.9 µM [activator, partial curve, poor fit]	
Cc1ccccc1NC(=S)NC(=O)COc1ccccc1C		inactive: 10.9%
COc1ccc(NC(=O)CN2CCN(CC(=O)Nc3ccccc3Cl)CC2)cc1	inconclusive: 25.9 µM [inhibitor, single point]	
COc1ccc(NC(=O)CSc2nc3c(c(=O)n2-c2ccc(F)cc2)SCC3)c(OC)c1	inconclusive: 23.1 µM [inhibitor, partial curve, poor fit]	
CCCCN(C)S(=O)(=O)c1ccc(C(=O)Nc2nnc(C3=COCCO3)o2)cc1	active: 14.6 µM	
Cc1ccc(Cn2c(O)c(N=NC(=S)Nc3ccccc3F)c3cc(S(=O)(=O)N4CCOCC4)ccc32)cc1	inconclusive: 2.31 µM [inhibitor, full curve]	
COCCN(CC(=O)Nc1cccc(C)c1C)C(=O)c1oc2ccccc2c1C	inconclusive: 18.3 µM [inhibitor, partial curve]	
N#Cc1ccccc1CCN1C(=O)c2ccccc2C1=O	inconclusive: 18.3 µM [activator, single point]	
O=C(Nc1ccc(S(=O)(=O)C(F)F)cc1)c1cccc(S(=O)(=O)N2CCOCC2)c1	inconclusive: 29.1 µM [inhibitor, single point]	
CCOC(=O)C1CCCN(CC(=O)Nc2c(C(=O)OC)[nH]c3ccc(C)cc23)C1 (stereo not given)	inconclusive: 23.1 µM [inhibitor, partial curve]	
Cc1cc(C)n(-c2ccc(C(=O)OC(C)C(=O)Nc3ccc(C(N)=O)cc3)cc2)n1 (stereo not given)	inconclusive: 23.1 µM [inhibitor, partial curve, poor fit]	
COc1ccc(OC)c(-c2c(=O)n(OCc3ccccc3Br)c3ccccc3[n+]2[O-])c1	inconclusive: 29.1 µM [inhibitor, single point]	
COc1ccccc1CNC(=O)CN1C(=O)NC2(CCOc3ccccc32)C1=O (stereo not given)	inconclusive: 20.6 µM [activator, single point]	
Cc1ccnc(N(C(=O)Nc2ccccc2)C2=NCC(C)(C)S2)c1	inconclusive: 16.4 µM [activator, partial curve]	
O=C(CN1Cc2ccccc2C1=O)Nc1ccc2c(c1)OCCO2	inconclusive: 29.1 µM [activator, single point]	
Cc1ccc(-n2[nH]c(=O)c(-c3ccccn3)c2C)cc1	inconclusive: 0.231 µM [activator, partial curve]	
C=C1CCC2C(C)(C)[C@H](O)CC[C@@]2(C)[C@@H]1COc1cc(=O)oc2ccccc12 (stereo not given in full)	inconclusive: 25.9 µM [inhibitor, partial curve, poor fit]	
Cc1occc1-c1nnc(SCC(=O)N2CCCCC2)o1	inconclusive: 29.1 µM [activator, single point]	
Cc1c(Cl)c(C(=O)NNC(=S)Nc2ccccc2)nn1C	inconclusive: 13 µM [activator, partial curve]	
Cc1ccc(Cl)cc1NC(=S)N1CCCCCC1	inconclusive: 14.6 µM [activator, partial curve, poor fit]	

Exported as a markdown table: entries from further up

| SMILES | Potency | activity change, negative = inhibition |
| --- | --- | --- |
| COc1ccc(NC(=O)CN2CCN(CC(=O)Nc3ccccc3Cl)CC2)cc1 | inconclusive: 25.9 µM [inhibitor, single point] |  |
| COc1ccc(NC(=O)CSc2nc3c(c(=O)n2-c2ccc(F)cc2)SCC3)c(OC)c1 | inconclusive: 23.1 µM [inhibitor, partial curve, poor fit] |  |
| CCCCN(C)S(=O)(=O)c1ccc(C(=O)Nc2nnc(C3=COCCO3)o2)cc1 | active: 14.6 µM |  |
| Cc1ccc(Cn2c(O)c(N=NC(=S)Nc3ccccc3F)c3cc(S(=O)(=O)N4CCOCC4)ccc32)cc1 | inconclusive: 2.31 µM [inhibitor, full curve] |  |
| COCCN(CC(=O)Nc1cccc(C)c1C)C(=O)c1oc2ccccc2c1C | inconclusive: 18.3 µM [inhibitor, partial curve] |  |
| N#Cc1ccccc1CCN1C(=O)c2ccccc2C1=O | inconclusive: 18.3 µM [activator, single point] |  |
| O=C(Nc1ccc(S(=O)(=O)C(F)F)cc1)c1cccc(S(=O)(=O)N2CCOCC2)c1 | inconclusive: 29.1 µM [inhibitor, single point] |  |
| CCOC(=O)C1CCCN(CC(=O)Nc2c(C(=O)OC)[nH]c3ccc(C)cc23)C1 (stereo not given) | inconclusive: 23.1 µM [inhibitor, partial curve] |  |
